Data reported in US8759301B2, “Gene fusion targeted therapy” (The Regents of The University of Michigan, priority 2010, dated 2014).
“Also recorded” adds a separate entry of the source. At least one peptide structure holds a part that was inferred or is arguable (an end, a ring closure or a residue). Where a SMILES comes first, the peptide text is derived from it.

Target: T1, AR binding to ETS domain (Homo sapiens, UniProt P11308)
T1 sequence (P11308 311-391 limits assumed): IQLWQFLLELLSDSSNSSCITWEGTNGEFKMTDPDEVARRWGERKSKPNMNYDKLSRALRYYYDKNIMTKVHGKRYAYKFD
Test: Pull-down assay, competition with AR for binding to ETS domain
Conditions: Halo-ETS on HaloLink beads, GST-AR, various concentrations of synthetic peptide

Structure (SMILES) | binding of AR to ETS domain | binding of AR to ETS domain (listed as random peptide)
CC[C@H](C)[C@H](NC(=O)[C@H](CCCCN)NC(=O)[C@H](CO)NC(=O)[C@@H](N)Cc1c[nH]cn1)C(=O)N[C@@H](CC(N)=O)C(=O)N1CCC[C@H]1C(=O)N[C@H](C(=O)O)[C@@H](C)O [HSKINPT] (H-HSKINPT-OH) | did not block | not
CC(C)C[C@H](NC(=O)[C@H](CO)NC(=O)CNC(=O)[C@H](Cc1ccccc1)NC(=O)[C@H](CO)NC(=O)[C@@H](N)CC(C)C)C(=O)N1CCC[C@H]1C(=O)O [LSFGSLP] (H-LSFGSLP-OH) | inhibited in a concentration-dependent manner; also recorded: inhibition | –
